Measured values taken from the supplement of paper PMC12819154, “High-throughput peptide-centric local stability assay extends protein–ligand identification to membrane proteins, tissues and bacteria” (Nature Structural & Molecular Biology, 2025).
Some of the results follow. Small differences around the control level are noise.

By UniProt entry, the sequences of proteins in these tests, tags left out. Where a name states a change or a piece, a line headed by the entry shows the natural chain unless it says otherwise.
UniProt Q9NNW7, whole entry: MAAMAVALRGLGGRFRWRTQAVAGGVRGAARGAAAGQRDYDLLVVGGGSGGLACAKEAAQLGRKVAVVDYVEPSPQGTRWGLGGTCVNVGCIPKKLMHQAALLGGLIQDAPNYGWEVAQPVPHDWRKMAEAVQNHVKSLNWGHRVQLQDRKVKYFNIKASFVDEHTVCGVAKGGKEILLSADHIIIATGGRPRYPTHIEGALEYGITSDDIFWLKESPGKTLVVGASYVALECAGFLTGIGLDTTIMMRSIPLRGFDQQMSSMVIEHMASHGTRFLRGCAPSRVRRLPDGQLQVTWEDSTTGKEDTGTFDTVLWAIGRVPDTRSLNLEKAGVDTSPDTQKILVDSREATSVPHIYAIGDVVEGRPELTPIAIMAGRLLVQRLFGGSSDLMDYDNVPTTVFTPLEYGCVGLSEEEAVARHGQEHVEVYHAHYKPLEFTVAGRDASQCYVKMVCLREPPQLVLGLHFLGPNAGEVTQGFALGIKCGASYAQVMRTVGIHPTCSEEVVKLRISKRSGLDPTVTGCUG
UniProt Q9NNW5: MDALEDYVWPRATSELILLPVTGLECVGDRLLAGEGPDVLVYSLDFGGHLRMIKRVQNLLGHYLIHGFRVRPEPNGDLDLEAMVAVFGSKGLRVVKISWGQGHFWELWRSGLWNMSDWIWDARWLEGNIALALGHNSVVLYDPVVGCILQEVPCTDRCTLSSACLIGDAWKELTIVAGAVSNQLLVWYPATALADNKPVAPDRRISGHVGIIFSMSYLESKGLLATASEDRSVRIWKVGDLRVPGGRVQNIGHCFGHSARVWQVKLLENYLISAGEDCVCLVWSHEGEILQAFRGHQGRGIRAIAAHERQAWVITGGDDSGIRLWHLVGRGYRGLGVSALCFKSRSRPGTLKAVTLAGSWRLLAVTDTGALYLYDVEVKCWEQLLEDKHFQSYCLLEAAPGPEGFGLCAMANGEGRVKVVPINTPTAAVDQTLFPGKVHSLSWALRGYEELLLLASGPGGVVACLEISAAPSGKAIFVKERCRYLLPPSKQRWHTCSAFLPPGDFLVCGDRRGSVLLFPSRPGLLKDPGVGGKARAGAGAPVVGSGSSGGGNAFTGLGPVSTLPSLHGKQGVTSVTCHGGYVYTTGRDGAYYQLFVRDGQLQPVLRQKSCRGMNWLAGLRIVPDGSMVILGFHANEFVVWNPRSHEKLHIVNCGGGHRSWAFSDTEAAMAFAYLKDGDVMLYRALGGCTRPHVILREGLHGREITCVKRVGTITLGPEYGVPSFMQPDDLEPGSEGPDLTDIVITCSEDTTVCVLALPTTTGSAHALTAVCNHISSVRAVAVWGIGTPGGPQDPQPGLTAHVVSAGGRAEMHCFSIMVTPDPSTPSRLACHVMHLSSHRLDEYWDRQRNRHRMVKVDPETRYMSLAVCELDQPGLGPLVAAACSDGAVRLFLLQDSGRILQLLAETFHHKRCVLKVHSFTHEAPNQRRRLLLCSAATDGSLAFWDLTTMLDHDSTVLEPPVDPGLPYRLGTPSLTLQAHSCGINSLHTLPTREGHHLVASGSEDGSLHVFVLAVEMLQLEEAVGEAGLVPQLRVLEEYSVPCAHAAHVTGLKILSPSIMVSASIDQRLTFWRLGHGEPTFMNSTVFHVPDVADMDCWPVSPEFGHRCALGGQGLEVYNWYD
UniProt Q9NWX5: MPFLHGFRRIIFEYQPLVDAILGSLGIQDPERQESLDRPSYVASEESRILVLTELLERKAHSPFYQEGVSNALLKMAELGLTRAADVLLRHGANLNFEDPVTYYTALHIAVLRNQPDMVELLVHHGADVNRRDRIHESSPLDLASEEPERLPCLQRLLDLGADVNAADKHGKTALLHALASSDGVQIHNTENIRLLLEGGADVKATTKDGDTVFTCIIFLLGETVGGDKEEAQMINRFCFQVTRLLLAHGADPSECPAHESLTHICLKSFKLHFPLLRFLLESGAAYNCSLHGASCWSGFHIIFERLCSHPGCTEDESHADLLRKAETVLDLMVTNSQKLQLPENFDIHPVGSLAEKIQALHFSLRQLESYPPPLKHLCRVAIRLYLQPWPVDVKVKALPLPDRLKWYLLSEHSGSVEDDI
UniProt Q9NSE2: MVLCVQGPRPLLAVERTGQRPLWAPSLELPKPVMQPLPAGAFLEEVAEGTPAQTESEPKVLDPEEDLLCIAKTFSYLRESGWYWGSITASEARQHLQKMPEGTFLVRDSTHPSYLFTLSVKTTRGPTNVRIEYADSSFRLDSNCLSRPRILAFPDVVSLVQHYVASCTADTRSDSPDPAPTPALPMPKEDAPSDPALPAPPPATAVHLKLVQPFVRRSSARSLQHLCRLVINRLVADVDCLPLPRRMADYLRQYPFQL
UniProt Q9NRX4: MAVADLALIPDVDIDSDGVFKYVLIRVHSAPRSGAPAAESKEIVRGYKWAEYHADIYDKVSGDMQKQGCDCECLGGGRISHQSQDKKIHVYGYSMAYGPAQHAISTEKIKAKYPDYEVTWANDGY
UniProt Q9NVZ3: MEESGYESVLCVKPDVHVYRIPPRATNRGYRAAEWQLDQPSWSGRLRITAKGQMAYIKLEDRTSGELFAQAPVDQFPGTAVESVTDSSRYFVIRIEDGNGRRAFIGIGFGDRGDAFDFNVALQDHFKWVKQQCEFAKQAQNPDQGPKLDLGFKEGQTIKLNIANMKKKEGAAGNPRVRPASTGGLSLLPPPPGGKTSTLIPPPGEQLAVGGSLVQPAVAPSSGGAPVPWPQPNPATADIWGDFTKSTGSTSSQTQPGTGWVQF
UniProt Q9NP73: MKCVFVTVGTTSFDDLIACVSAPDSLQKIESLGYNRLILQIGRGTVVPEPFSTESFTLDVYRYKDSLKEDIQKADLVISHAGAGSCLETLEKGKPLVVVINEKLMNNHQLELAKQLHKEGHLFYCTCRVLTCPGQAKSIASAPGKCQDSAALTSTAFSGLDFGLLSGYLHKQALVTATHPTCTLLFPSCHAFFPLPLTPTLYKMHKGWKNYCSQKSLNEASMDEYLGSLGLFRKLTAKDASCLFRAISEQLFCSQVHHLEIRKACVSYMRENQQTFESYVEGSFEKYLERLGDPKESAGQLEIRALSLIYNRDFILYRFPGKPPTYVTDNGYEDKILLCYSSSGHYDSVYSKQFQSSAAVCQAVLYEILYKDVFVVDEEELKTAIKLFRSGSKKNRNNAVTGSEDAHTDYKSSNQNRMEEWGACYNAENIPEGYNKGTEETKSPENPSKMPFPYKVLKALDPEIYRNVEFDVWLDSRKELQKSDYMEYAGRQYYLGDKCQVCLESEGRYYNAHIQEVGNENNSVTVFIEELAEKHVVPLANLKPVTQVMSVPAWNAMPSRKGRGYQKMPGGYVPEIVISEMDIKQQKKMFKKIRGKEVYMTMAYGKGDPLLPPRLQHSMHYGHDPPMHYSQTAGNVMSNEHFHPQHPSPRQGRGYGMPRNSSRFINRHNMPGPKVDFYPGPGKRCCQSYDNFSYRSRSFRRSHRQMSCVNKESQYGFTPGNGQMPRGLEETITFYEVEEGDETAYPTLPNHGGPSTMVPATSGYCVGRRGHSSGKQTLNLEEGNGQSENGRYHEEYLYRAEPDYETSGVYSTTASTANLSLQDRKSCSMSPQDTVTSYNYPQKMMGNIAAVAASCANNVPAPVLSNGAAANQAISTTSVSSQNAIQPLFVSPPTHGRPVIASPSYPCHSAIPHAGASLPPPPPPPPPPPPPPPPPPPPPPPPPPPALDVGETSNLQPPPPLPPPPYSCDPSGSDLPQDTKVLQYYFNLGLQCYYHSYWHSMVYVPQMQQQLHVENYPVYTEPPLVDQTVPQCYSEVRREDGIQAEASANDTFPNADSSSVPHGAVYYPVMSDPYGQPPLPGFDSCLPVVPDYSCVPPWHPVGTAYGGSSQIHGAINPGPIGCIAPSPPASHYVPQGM
UniProt Q9NRW4: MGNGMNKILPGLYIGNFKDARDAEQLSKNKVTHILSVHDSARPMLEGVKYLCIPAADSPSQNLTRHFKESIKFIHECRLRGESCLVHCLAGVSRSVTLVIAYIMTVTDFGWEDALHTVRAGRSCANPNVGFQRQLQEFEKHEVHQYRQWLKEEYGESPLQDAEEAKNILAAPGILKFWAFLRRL
UniProt Q9NP97, whole entry: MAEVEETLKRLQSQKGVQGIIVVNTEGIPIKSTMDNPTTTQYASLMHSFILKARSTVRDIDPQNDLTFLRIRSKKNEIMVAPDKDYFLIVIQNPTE
UniProt Q9NR12, whole entry: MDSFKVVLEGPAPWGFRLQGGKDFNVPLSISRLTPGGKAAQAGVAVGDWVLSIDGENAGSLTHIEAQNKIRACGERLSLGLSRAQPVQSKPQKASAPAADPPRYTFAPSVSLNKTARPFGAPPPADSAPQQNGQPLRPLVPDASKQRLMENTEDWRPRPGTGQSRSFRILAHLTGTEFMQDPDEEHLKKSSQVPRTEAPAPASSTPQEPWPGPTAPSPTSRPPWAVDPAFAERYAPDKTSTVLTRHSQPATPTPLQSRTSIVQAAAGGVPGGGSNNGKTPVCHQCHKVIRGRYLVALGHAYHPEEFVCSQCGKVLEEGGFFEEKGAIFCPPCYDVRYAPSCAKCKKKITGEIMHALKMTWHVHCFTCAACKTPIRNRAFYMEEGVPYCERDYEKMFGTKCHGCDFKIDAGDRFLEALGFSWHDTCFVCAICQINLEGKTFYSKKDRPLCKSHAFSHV
UniProt Q9NRD1: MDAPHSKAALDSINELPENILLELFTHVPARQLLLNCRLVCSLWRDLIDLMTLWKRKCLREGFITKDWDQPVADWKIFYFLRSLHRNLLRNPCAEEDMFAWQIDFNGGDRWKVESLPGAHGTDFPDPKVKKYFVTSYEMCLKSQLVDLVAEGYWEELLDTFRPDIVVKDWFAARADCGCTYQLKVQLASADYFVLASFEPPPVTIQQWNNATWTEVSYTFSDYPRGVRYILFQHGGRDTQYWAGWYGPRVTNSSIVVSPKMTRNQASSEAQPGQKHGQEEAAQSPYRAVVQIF
UniProt Q9HCN4, whole entry: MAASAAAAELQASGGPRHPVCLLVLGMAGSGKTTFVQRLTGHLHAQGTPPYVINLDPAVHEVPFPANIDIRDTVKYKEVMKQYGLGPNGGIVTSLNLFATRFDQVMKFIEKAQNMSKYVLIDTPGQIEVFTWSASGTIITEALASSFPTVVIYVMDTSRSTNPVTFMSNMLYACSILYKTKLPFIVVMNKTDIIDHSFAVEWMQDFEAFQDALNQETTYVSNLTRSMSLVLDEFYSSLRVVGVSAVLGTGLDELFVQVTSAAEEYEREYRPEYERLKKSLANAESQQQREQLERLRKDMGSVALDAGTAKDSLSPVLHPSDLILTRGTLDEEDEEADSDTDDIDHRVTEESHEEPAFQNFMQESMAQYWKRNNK
UniProt Q9NVA4: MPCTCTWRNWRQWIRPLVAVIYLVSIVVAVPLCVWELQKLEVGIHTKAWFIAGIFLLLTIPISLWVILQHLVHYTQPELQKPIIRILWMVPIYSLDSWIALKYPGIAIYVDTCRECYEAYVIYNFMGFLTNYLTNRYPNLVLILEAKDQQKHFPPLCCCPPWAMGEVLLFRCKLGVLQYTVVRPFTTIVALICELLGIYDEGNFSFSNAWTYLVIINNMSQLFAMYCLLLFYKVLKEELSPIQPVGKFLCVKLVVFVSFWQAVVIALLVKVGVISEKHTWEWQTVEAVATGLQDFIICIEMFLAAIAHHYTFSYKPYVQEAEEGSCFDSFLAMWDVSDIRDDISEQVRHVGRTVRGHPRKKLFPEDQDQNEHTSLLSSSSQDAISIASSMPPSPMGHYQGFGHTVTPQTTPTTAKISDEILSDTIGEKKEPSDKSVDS
UniProt Q9NSI8: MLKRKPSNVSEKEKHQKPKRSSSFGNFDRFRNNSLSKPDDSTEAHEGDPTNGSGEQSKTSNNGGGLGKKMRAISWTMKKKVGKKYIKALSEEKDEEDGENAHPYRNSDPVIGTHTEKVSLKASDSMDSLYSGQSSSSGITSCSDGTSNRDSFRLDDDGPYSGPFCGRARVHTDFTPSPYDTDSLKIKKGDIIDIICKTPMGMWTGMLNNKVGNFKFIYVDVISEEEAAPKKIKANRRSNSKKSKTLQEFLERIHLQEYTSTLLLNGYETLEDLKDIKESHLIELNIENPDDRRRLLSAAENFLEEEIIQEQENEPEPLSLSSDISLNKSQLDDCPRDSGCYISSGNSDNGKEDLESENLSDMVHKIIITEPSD
UniProt Q9NUQ3: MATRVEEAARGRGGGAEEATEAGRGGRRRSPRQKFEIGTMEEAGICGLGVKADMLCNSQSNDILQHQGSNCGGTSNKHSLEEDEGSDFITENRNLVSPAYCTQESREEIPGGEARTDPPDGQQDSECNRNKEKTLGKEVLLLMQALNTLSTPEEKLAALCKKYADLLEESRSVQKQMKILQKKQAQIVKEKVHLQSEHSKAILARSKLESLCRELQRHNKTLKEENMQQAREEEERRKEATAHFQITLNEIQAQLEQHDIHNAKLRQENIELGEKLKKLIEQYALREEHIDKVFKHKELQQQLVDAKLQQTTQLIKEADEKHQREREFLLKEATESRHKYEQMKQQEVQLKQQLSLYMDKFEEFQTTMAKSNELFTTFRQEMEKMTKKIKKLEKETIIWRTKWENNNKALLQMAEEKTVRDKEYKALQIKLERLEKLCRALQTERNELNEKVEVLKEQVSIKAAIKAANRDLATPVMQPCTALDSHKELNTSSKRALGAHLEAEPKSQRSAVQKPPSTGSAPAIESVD

These targets were tested with Cc1nc(Nc2ncc(C(=O)Nc3c(C)cccc3Cl)s2)cc(N2CCN(CCO)CC2)n1 [dasatinib] (assay: log2 fold change of tryptic peptide abundance, ligand vs vehicle (limited proteolysis) (log2 ratio); higher = more trypsin-susceptible (destabilized)). Settings: ligand concentration: 5 uM; sample: K562 cleared lysate.

Row | Target | log2 fold change
1 | TXNRD2 (peptide sequence: GFDQQMSSMVIEHMASHGTR, peptide start residue: 255) (UniProt Q9NNW7) | -0.36
2 | WDR6 (peptide sequence: VQNIGHCFGHSAR, peptide start residue: 248) (UniProt Q9NNW5) | 0.567
3 | USP40 (peptide sequence: RPGRLLR, peptide start residue: 1030) (UniProt Q9NVE5) | -0.392
4 | UniProt Q9HCM9 (peptide sequence: DFPCPVCRK, peptide start residue: 63) | -0.107
5 | UBE2T (peptide sequence: FLTPIYHPNIDSAGR, peptide start residue: 70) (UniProt Q9NPD8) | 0.0985
6 | ASB6 (peptide sequence: IHESSPLDLASEEPERLPCLQR, peptide start residue: 135) (UniProt Q9NWX5) | -0.574
7 | SMC4 (peptide sequence: VEILNEHRGEK, peptide start residue: 274) (UniProt Q9NTJ3) | 0.253
8 | CISH (peptide sequence: MPEGTFLVR, peptide start residue: 99) (UniProt Q9NSE2) | 0.246
9 | PHPT1 (peptide sequence: WAEYHADIYDK, peptide start residue: 49) (UniProt Q9NRX4) | 0.384
10 | NECAP2 (peptide sequence: QQCEFAK, peptide start residue: 131) (UniProt Q9NVZ3) | 0.137
11 | ALG13 (peptide sequence: ALDPEIYR, peptide start residue: 459) (UniProt Q9NP73) | 0.175
12 | DUSP22 (peptide sequence: SCANPNVGFQR, peptide start residue: 123) (UniProt Q9NRW4) | 0.158
13 | BRWD1 (peptide sequence: EPWRKMDLR, peptide start residue: 992) (UniProt Q9NSI6) | -0.483
14 | DYNLRB1 (peptide sequence: STVRDIDPQNDLTFLR, peptide start residue: 55) (UniProt Q9NP97) | -0.172
15 | RTN4 (peptide sequence: VAVEAPMREEYADFKPFER, peptide start residue: 374) (UniProt Q9NQC3) | 0.126
16 | PDLIM7 (peptide sequence: KKITGEIMHALK, peptide start residue: 346) (UniProt Q9NR12) | 0.573
17 | MLXIPL (peptide sequence: GKPPAPSPR, peptide start residue: 493) (UniProt Q9NP71) | 0.18
18 | FBXO6 (peptide sequence: HGQEEAAQSPYR, peptide start residue: 276) (UniProt Q9NRD1) | 0.112
19 | NGRN (peptide sequence: GTGSGALPSGQKLEELK, peptide start residue: 246) (UniProt Q9NPE2) | 0.72
20 | GPN1 (peptide sequence: SLANAESQQQR, peptide start residue: 279) (UniProt Q9HCN4) | -0.0513
21 | TMLHE (peptide sequence: SLTCAWQQHEDHFELK, peptide start residue: 48) (UniProt Q9NVH6) | -0.341
22 | TMEM184C (peptide sequence: ISDEILSDTIGEKKEPSDK, peptide start residue: 416) (UniProt Q9NVA4) | -0.472
23 | DNAJC11 (peptide sequence: KQEAESAVR, peptide start residue: 435) (UniProt Q9NVH1) | 0.331
24 | SAMSN1 (peptide sequence: DIKESHLIELNIENPDDRR, peptide start residue: 275) (UniProt Q9NSI8) | -0.306
25 | MRPL40 (peptide sequence: LHAEAIKRDPNLFPFEK, peptide start residue: 157) (UniProt Q9NQ50) | -0.28
26 | UniProt Q9NUQ3 (peptide sequence: ALQTERNELNEKVEVLK, peptide start residue: 440) | -0.617
27 | TUFT1 (peptide sequence: NLGDSLHR, peptide start residue: 127) (UniProt Q9NNX1) | -0.103

2 records drawn at random from those above, as already listed:
Row | Target | log2 fold change
16 | PDLIM7 (peptide sequence: KKITGEIMHALK, peptide start residue: 346) (UniProt Q9NR12) | 0.573
26 | UniProt Q9NUQ3 (peptide sequence: ALQTERNELNEKVEVLK, peptide start residue: 440) | -0.617
